Some of these results come from one statement about several compounds together. For at least one compound, name, drawing or mass did not settle the structure.
Key:
ThnQ = assay: In vitro reaction of carbapenam/ems with purified ThnQ, HPLC and ESI-MS analysis of products; format: biochemical, Streptomyces cattleya; settings: 1 mM substrate, 0.2 mg/mL ThnQ, 25 mM MOPS pH 7.0, ferrous ammonium sulfate, α-KG, ascorbate, room temperature 1 h
Procedure: (§1) Thienamycin biosynthetic cluster genes thnG and thnQ were cloned from genomic DNA and inserted into pET29b each bearing a C-terminal His6-tag. The recombinant proteins were overproduced in E. coli Rosetta2(DE3) and purified by Ni-NTA affinity chromatography. In vitro reactions in MOPS, pH 7.0, containing Fe(NH4)2(SO4)2, α-KG, ascorbate, the subject carbapenam/em, and either ThnG or ThnQ were incubated and analyzed by HPLC for the formation of new product(s). Salowe, S. P., et al., Biochemistry 29(27):6499-6508 (1990); Decristoforo, G. Anal. Chim. Acta 163(SEP):25-33 (1984). […] The products were immediately identifiable as carbapenems by their unique chromophores (λmax=290-320 nm). ThnQ produced a single new product more polar than 5, while ThnG produced two products, one with a shorter retention time and one with a longer retention time than that of 5.
(§2) For routine HPLC analysis, reactions were assembled containing 25 mM MOPS, pH 7.0, 1 mM ascorbate, 0.08 mM ferrous ammonium sulfate, 8 mM α-ketoglutarate (α-KG), 1 mM of the substrate and 0.2 mg/mL ThnG or ThnQ. Salowe, S. P., et al., Biochemistry 29(27):6499-6508 (1990). After addition of the protein, the reactions were incubated at room temperature for 1 h. The protein was then removed with an Amicon Ultra 10,000 MWCO filter. For ESI mass spectroscopic analysis of HPLC purified enzymatic products, reactions were assembled under similar conditions except containing 2 mM substrate, 2 mM ascorbate and 0.6 mg/mL ThnG or ThnQ.
(§3) HPLC conditions: Phenomenex Luna 5 μC18(2) analytical column; Method 1, A=50 mM ammonium formate pH 8.5, B=MeOH, t=0 min 0% B, t=10 min 35% B, t=13 min 35% B, t=15 min 0% B, t=20 min 0% B. Method 2, A=50 mM ammonium formate pH 8.5, B=MeOH, t=0 min 0% B, t=10 min 33% B, t=18 min 33% B, t=20 min 0% B, t=25 min 0% B. λ=300 nm (carbapenem) or 220 nm (carbapenam). Decristoforo, G., Anal. Chim. Acta 163:25-33 (1984). Purified carbapenems were collected from the HPLC and analyzed directly by ESI mass spectrometry in the negative ion mode.

ThnG = assay: In vitro reaction of carbapenam/ems with purified ThnG, HPLC and ESI-MS analysis of products; format: biochemical, Streptomyces cattleya; settings: 1 mM substrate, 0.2 mg/mL ThnG, 25 mM MOPS pH 7.0, ferrous ammonium sulfate, α-KG, ascorbate, room temperature 1 h
Procedure: as §1, §2, §3

E. coli SC 12155 = assay: In vitro reactions with cell-free extracts harboring ThnG or ThnQ, bioassay with supersensitive E. coli SC 12155; format: cell-based; settings: 2 mM substrate, cell-free extract harboring ThnG or ThnQ, 2 h room temperature, 200 μL of reaction analyzed
[1] = test system: Bacillus licheniformis ATCC 14580; assay: In vitro reactions with cell-free extracts harboring ThnG or ThnQ, Nitrocefin β-lactamase induction assay; format: cell-based; settings: 2 mM substrate, cell-free extract harboring ThnG or ThnQ, 2 h room temperature, 200 μL of reaction analyzed

Row | Compound | product(s) of the ThnQ-catalyzed reaction (HPLC, ESI-MS) (ThnQ) | product(s) of the ThnG-catalyzed reaction (HPLC, ESI-MS) (ThnG) | antibiotic production detected with supersensitive E. coli SC 12155 (E. coli SC 12155) | antibiotic production detected by Nitrocefin β-lactamase induction assay [1]
1 | (2S,5R)-carbapenam [compound 12] | did not show appearance of a carbapenem chromophore or other new products | did not show appearance of a carbapenem chromophore or other new products | No antibiotic production could be detected | No antibiotic production could be detected
2 | (2R,3R,5S,6R)-2-(N-acetyl cysteaminyl)-6-ethylcarbapenam [compound 17] | did not show appearance of a carbapenem chromophore or other new products | did not show appearance of a carbapenem chromophore or other new products | No antibiotic production could be detected | No antibiotic production could be detected
3 | CC[C@H]1C(=O)N2C(C(=O)O)=C(SCCNC(C)=O)C[C@@H]12 [compound 6, 5-epi-PS-5] | did not show appearance of a carbapenem chromophore or other new products | did not show appearance of a carbapenem chromophore or other new products | No antibiotic production could be detected | No antibiotic production could be detected
4 | (2S,3R,5S,6R)-2-(N-acetyl cysteaminyl)-6-ethylcarbapenam [compound 16] | did not show appearance of a carbapenem chromophore or other new products | did not show appearance of a carbapenem chromophore or other new products | No antibiotic production could be detected | No antibiotic production could be detected
5 | (2S,5S)-carbapenam [compound 11] | did not show appearance of a carbapenem chromophore or other new products | did not show appearance of a carbapenem chromophore or other new products | No antibiotic production could be detected | No antibiotic production could be detected

— patent publication US9458479B2, “Method for late introduction of the (8R) hydroxyl group carbapenem β-lactam antibiotic synthesis” (THE JOHNS HOPKINS UNIVERSITY, priority 2009, dated 2016)
